Results taken from publication PMC7532574.
No constants are given. Whether binding was seen depends on the method and setting. Binding seen in cells or lysates may run through a third protein.

Chains of the proteins cited; added tags and fusions are not shown. Lines headed by an entry give the natural chain unless they say otherwise; changes in a name come on top.
UniProt Q15004: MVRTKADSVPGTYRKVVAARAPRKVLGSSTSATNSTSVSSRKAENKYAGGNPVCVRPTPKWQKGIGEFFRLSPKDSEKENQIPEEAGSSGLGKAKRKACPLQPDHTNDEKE
UniProt O00762: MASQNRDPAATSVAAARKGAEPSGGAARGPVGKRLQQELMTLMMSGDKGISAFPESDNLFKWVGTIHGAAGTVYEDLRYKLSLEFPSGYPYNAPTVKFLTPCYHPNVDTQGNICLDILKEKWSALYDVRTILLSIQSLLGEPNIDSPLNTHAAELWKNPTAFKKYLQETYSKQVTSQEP

Target: KIAA0101 harboring a mutant KEN box (HA-mt-KIAA0101) (human) (UniProt Q15004)
Assay: co-IP; lysates of SK-MES-1 cells transfected 48 h with HA-KIAA0101 (wt or mutant KEN box); precleared, precipitated with anti-HA antibody (2 ug/ml) and protein A or G agarose/Sepharose beads, 2 h at room temperature or overnight at 4 °C; washed with PBS; western blotting

binding: no binding
Substance: UbcH10 (from UniProt O00762 1-179) (enzyme)
